For at least one compound, name, drawing or mass did not settle the structure.
Test system: TC-1 cells
Assay type: in vivo, C57BL/6 mice
Conditions: TLR ligand given with CyaA-E7 on day 25, versus CyaA-E7 alone
Method: Specific pathogen-free 5-week-old female C57BL/6 mice were purchased from Charles River (L'Arbresle, France) and were kept in the Pasteur Institute animal facilities under pathogen-free conditions with water and food ad libitum. C57BL/6-RAG1^−/− mice were obtained from the Jackson Laboratory, USA. Experiments involving animals were conducted according to the institutional guidelines for animal care.
TC-1 cells expressing HPV16-E6 and HPV16-E7 proteins derived from primary mouse lung epithelial cells were obtained from the American Type Culture Collection (LGC Promochem, Molsheim, France) (14). EL4-E7 cells, a mouse lymphoma expressing HPV16-E7 (15). […]
Tumor cells lines (5×10^5 TC-1 cells or 4×10^6 EL4-E7 cells) were inoculated into the shaved left back of C57BL/6 mice in 200 μl volume of PBS. Tumor size, presented as the average of two perpendicular diameters (millimeters), was measured at regular intervals. […]
Tumor growth data were analyzed by non-linear mixed effect models using Monolix software (http://www.math.u-psud.fr/˜lavielle/monolix/). […] Kaplan-Meier plots were used to analyzed survival, and a log rank test was used to examine statistical significance of differences in the survival curves using Prism software (GraphPad Software, Inc. San Diego, USA). […]

`CCOCc1nc2c(N)nc3ccccc3c2n1CC(C)(C)O` [R848, 4-amino-2-ethoxymethyl-a,a, dimethyl-1-H-imidazo[4,5c]quinoline-1-ethanol] was tested, and the “increase in tumor regression” value was “not”.
